No constants are given. Whether binding was seen depends on the method and setting. For part of these data: Binding can be weak; no strength is given. For part of these data: Tags and fused reporters may be left off the sequences shown.

Experiment [1] addresses T1, Strep II-CPK32 (Arabidopsis) (UniProt Q6NLQ6).
T1 sequence: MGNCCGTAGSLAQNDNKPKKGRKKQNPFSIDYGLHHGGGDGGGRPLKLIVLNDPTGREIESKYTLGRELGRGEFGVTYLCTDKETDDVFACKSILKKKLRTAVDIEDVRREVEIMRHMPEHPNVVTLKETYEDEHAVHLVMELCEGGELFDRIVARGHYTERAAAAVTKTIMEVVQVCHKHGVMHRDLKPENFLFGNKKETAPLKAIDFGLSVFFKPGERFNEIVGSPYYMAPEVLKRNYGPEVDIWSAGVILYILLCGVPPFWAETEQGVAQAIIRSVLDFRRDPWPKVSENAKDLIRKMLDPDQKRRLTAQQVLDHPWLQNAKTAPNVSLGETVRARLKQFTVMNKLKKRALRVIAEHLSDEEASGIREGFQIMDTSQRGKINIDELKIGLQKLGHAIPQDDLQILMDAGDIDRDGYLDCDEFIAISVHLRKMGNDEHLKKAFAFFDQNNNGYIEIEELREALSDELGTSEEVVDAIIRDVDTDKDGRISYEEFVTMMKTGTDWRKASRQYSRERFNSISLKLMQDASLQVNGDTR
Description: pull-down; Strep II-CPK32 as bait, FCA-His fusion proteins as prey; blots with anti-Strep II and anti-His antibodies; both purified.

Experiment [2] has as its target T2, calcium-dependent protein kinase 32 (CPK32), yeast two-hybrid fusion (Arabidopsis) (UniProt Q6NLQ6).
T2 sequence: T1 sequence
Description: two-hybrid; Yeast Two-Hybrid in yeast; CPK32/pDEST32 as negative control.

Turning to “FCA-C-His (C-terminal region of FCA containing the WW domain) (Arabidopsis) (domain or fragment)”, in experiment [1], the binding result is reported as “binds”. As for “FVE, yeast two-hybrid fusion (Arabidopsis)”, the binding entry in experiment [2] is reported as “no binding”. Consider “N-terminal region of FCA containing two RNA recognition motif (RRM) domains, His fusion (Arabidopsis) (domain or fragment)”, for which the binding result in experiment [1] is listed as “no binding”.

The record behind these values is PMC8783668.
